The values below come from the supplement of paper PMC12819154, “High-throughput peptide-centric local stability assay extends protein–ligand identification to membrane proteins, tissues and bacteria” (Nature Structural & Molecular Biology, 2025).

By UniProt entry, the sequences of proteins in these tests, tags left out. Where a name states a change or a piece, a line headed by the entry shows the natural chain unless it says otherwise.
UniProt P26374: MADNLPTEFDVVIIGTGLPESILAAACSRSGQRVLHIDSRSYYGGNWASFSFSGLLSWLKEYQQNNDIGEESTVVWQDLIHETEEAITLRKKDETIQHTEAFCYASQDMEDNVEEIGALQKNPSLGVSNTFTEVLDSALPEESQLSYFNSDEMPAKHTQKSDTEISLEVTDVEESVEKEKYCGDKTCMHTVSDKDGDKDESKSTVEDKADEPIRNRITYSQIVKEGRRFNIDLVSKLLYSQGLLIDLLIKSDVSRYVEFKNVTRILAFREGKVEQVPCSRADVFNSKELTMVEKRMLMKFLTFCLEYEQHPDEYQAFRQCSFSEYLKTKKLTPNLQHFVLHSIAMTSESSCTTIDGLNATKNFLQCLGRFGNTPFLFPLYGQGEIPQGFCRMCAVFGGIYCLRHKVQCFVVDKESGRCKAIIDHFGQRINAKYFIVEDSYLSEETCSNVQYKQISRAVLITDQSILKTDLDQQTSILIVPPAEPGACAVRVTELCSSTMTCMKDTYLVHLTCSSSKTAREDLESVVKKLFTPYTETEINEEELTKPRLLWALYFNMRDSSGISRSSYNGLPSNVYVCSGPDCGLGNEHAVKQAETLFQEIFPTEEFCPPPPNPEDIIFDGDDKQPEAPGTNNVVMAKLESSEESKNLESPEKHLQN
UniProt P27824: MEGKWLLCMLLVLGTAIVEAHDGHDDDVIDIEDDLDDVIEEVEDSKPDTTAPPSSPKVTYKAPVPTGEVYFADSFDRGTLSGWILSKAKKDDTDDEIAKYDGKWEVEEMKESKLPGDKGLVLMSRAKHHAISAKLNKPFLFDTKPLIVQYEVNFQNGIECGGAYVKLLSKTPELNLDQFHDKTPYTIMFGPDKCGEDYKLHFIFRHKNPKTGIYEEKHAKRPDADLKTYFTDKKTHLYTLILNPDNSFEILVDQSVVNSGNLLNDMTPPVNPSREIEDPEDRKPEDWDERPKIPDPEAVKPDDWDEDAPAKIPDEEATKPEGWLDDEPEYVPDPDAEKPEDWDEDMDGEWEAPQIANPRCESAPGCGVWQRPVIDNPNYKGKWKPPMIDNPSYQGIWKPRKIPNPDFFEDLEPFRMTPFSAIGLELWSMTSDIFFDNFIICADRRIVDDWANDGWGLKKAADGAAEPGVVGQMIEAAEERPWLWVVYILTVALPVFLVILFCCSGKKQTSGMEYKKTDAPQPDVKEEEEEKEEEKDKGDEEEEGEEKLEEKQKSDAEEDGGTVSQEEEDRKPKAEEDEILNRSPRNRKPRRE
UniProt P26641, whole entry: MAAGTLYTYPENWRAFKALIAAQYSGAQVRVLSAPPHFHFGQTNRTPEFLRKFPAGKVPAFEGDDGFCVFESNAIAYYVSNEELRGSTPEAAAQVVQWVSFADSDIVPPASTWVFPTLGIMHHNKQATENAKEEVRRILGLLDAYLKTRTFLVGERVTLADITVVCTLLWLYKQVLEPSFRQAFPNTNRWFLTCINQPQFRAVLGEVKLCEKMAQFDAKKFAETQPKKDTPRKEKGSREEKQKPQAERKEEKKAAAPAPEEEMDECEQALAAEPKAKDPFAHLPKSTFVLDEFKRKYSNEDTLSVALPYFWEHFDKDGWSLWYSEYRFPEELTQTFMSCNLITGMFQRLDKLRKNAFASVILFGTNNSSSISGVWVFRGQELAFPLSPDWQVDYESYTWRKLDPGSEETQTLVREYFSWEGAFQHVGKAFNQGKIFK
UniProt P21291: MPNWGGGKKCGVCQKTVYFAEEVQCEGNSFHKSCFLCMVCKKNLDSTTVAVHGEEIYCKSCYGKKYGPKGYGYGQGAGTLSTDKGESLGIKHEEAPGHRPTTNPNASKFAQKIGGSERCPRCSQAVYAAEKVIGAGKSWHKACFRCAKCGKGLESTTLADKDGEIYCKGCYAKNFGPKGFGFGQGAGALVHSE
UniProt P24752: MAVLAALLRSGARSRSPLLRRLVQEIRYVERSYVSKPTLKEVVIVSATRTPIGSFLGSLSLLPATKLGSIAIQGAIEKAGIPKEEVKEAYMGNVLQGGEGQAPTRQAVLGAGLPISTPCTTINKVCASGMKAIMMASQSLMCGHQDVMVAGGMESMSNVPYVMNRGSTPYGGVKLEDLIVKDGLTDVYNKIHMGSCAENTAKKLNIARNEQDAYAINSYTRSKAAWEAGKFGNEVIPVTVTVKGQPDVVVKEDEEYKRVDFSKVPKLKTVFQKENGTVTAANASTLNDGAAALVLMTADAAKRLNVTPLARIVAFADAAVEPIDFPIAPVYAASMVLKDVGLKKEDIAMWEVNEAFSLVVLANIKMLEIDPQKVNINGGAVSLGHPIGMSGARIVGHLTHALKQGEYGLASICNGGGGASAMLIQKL
UniProt P18846: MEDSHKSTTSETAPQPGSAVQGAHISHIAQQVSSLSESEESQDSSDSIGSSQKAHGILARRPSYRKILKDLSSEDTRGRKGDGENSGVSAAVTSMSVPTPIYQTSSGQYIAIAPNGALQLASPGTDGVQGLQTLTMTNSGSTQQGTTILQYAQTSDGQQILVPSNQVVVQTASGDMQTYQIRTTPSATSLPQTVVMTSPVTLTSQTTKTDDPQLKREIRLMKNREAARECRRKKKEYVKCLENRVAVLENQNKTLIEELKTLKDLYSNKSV
UniProt P18440: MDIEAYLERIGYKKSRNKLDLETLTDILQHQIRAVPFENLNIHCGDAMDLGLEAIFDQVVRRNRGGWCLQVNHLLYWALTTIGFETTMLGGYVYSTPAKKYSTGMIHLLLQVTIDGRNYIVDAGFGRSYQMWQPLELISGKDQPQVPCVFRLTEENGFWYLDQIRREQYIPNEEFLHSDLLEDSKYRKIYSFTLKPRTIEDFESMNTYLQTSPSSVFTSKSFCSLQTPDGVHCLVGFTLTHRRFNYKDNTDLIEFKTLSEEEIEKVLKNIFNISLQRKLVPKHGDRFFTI
UniProt P26885: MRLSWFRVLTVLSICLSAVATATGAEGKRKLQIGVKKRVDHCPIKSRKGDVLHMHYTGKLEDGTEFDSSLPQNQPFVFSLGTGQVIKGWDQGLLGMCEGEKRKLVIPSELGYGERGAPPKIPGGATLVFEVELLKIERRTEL
UniProt P16152: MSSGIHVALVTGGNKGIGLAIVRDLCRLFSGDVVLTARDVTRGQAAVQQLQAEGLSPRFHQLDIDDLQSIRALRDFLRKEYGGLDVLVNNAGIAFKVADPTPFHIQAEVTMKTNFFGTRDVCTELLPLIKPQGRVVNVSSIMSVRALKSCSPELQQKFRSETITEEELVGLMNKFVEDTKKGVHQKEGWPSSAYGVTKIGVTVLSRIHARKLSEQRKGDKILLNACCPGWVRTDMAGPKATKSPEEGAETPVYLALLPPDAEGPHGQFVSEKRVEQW
UniProt P18206: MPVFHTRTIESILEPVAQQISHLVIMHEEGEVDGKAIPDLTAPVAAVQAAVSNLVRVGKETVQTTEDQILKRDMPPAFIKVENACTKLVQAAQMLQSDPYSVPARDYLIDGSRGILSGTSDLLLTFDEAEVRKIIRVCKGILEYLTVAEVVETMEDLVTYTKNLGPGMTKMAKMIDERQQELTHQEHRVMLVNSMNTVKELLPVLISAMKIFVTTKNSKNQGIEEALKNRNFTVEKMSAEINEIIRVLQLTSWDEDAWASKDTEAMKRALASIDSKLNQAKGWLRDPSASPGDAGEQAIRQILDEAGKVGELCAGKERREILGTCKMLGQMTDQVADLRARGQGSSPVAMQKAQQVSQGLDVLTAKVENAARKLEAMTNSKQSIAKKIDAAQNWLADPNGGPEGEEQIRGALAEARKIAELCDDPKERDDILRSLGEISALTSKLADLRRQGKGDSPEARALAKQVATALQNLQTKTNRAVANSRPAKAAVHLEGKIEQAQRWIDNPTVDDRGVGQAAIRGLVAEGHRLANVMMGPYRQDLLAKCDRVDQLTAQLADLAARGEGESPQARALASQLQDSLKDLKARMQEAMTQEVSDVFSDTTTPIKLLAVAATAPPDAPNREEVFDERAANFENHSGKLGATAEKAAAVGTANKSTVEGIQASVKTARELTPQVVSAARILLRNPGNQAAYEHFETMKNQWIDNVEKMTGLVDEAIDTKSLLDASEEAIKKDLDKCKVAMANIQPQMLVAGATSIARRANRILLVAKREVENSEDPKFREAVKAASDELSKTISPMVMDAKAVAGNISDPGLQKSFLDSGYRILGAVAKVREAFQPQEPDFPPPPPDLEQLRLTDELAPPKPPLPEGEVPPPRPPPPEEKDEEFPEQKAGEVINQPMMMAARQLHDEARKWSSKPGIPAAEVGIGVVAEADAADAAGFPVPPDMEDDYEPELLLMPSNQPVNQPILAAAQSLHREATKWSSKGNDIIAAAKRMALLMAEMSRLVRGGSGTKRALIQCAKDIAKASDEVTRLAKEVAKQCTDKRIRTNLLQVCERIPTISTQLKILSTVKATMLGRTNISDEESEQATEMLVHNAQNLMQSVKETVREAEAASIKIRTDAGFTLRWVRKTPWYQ
UniProt P24468: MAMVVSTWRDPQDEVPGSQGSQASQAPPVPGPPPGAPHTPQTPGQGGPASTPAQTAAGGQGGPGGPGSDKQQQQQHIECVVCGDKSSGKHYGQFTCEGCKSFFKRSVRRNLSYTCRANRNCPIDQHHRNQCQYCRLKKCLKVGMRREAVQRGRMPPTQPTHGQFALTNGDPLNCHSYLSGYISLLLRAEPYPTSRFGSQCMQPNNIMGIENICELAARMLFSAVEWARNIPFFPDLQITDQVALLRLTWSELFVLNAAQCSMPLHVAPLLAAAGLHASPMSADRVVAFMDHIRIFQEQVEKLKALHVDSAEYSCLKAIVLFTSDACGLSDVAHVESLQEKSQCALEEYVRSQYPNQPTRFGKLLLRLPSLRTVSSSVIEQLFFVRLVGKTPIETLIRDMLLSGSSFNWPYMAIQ
UniProt P20585: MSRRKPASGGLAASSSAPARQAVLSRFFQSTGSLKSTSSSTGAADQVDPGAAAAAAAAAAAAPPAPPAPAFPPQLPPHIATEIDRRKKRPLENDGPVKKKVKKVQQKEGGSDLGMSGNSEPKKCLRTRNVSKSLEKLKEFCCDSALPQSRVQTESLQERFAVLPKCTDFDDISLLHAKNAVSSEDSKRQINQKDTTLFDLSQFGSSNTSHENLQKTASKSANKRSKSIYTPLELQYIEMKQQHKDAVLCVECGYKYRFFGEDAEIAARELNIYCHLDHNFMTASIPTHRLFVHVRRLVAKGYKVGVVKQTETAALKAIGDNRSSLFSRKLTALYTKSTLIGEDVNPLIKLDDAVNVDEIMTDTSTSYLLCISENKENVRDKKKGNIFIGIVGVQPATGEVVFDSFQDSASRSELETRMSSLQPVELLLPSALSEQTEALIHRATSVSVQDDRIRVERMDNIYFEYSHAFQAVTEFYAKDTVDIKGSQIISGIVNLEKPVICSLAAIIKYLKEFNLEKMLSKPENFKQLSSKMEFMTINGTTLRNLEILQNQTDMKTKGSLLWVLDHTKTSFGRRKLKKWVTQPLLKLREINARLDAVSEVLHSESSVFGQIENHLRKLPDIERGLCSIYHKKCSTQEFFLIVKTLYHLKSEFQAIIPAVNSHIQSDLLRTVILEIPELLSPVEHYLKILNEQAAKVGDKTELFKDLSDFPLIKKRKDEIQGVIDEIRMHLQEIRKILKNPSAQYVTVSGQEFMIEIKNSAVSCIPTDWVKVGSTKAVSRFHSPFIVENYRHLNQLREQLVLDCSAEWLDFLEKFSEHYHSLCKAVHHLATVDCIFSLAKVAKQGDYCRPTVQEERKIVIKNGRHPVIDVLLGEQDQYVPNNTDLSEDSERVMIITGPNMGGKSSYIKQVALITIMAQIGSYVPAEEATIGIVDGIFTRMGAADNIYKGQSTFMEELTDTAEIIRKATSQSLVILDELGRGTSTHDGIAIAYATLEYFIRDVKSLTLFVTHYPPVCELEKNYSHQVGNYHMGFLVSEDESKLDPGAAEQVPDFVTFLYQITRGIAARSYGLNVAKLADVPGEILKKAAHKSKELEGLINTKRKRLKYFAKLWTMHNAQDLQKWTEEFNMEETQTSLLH
UniProt P15622: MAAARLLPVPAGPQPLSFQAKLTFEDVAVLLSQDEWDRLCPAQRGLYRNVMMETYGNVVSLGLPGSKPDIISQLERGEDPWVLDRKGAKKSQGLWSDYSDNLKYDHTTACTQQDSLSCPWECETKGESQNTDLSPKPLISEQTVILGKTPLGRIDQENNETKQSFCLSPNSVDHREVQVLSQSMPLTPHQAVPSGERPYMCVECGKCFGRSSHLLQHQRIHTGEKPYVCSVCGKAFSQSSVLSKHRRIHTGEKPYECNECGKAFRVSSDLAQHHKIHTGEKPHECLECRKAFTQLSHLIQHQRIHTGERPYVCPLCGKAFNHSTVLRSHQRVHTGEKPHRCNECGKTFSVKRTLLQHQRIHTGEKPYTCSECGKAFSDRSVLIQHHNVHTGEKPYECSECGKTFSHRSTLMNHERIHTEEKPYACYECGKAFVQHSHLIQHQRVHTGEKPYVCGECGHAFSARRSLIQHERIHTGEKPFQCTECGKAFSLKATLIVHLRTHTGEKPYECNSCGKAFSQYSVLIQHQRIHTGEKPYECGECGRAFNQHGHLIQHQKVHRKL

Compound in the assay: CN[C@@H]1C[C@H]2O[C@@](C)([C@@H]1OC)n1c3ccccc3c3c4c(c5c6ccccc6n2c5c31)C(=O)NC4 [staurosporine]
Description: log2 fold change of tryptic peptide abundance, ligand vs vehicle (limited proteolysis) (log2 ratio); higher = more trypsin-susceptible (destabilized). The following applies: ligand concentration: 20 uM; sample: K562 cleared lysate; digestion: 4 min, 22 C (HT-PELSA RT4min, Orbitrap Astral).

This is one part of the list. Most entries show no effect beyond the scatter of the controls.

For the target “DARS (peptide sequence: YGISSMIQSQEKPDR, peptide start residue: 29) (UniProt P14868)”, the log2 fold change came to 0.126.

“CHML (peptide sequence: TCMHTVSDKDGDKDESK, peptide start residue: 186) (UniProt P26374)”: the log2 fold change was -0.989.

With “CANX (peptide sequence: AEEDEILNR, peptide start residue: 574) (UniProt P27824)”, the log2 fold change was -0.0822.

In the case of “EEF1G (peptide sequence: ILGLLDAYLKTR, peptide start residue: 138) (UniProt P26641)”, the log2 fold change was -0.219.

Take “GFAP (peptide sequence: GTNESLER, peptide start residue: 335) (UniProt P14136)”: the log2 fold change is -0.142.

Regarding “APEH (peptide sequence: SFNLSALEK, peptide start residue: 132) (UniProt P13798)”, the log2 fold change amounted to 0.313.

Take “SP100 (peptide sequence: NKVEISNAIKK, peptide start residue: 60) (UniProt P23497)”: the log2 fold change was 0.394.

Take “RPS3 (peptide sequence: KPLPDHVSIVEPK, peptide start residue: 202) (UniProt P23396)”: the log2 fold change was determined as 0.17.

On to “JUND (peptide sequence: LASPELER, peptide start residue: 71) (UniProt P17535)”, for which the log2 fold change is -0.211.

As for “UniProt P17017 (peptide sequence: ETFTGAKPHECSFCGR, peptide start residue: 95)”, the log2 fold change is 0.604.

For the target “CSRP1 (peptide sequence: HEEAPGHRPTTNPNASK, peptide start residue: 92) (UniProt P21291)”, the log2 fold change is -0.0867.

For the target “ACAT1 (peptide sequence: VDFSKVPK, peptide start residue: 259) (UniProt P24752)”, the log2 fold change stood at 0.35.

Take “ATF1 (peptide sequence: DLSSEDTR, peptide start residue: 70) (UniProt P18846)”: the log2 fold change is -0.111.

For the target “NAT1 (peptide sequence: NKLDLETLTDILQHQIR, peptide start residue: 17) (UniProt P18440)”, the log2 fold change was 0.947.

On to “FKBP2 (peptide sequence: KRVDHCPIK, peptide start residue: 37) (UniProt P26885)”, for which the log2 fold change worked out at 0.635.

With “DNMT1 (peptide sequence: FKNSLVVSFLSYCDYYRPR, peptide start residue: 1243) (UniProt P26358)”, the log2 fold change amounted to 1.01.

Consider “PDE4A (peptide sequence: SLSLSLPGPR, peptide start residue: 11) (UniProt P27815)”, for which the log2 fold change came out at 0.466.

Consider “CBR1 (peptide sequence: GQAAVQQLQAEGLSPR, peptide start residue: 43) (UniProt P16152)”, for which the log2 fold change amounted to 0.298.

Take “VCL (peptide sequence: ELLPVLISAMK, peptide start residue: 200) (UniProt P18206)”: the log2 fold change amounted to 0.286.

Regarding “UniProt P24468 (peptide sequence: MLFSAVEWAR, peptide start residue: 219)”, the log2 fold change is 0.0737.

As for “IRF2 (peptide sequence: CAMNSLPDIEEVKDK, peptide start residue: 83) (UniProt P14316)”, the log2 fold change is -0.26.

For the target “MSH3 (peptide sequence: FHSPFIVENYR, peptide start residue: 780) (UniProt P20585)”, the log2 fold change was determined as 0.35.

As to “UniProt P15622 (peptide sequence: AFTQLSHLIQHQR, peptide start residue: 291)”, the log2 fold change was -0.157.
